Laboratory results: PubChem BioAssay AID1439 (NMMLSC, 2008)
Out of some 220,000 compounds screened, about 770 (0.35%) were called active. Inconclusive results, whose numbers are uncertain, are shown with a selection of clear calls. Rule as the data show it: active = binding response below about 49% or above about 150%; inconclusive = no clear call, values can overlap the other calls; inactive = in between.

Sequences of proteins named here, by UniProt entry; tags and fusion partners are left off.
UniProt P09471, whole entry, looked up: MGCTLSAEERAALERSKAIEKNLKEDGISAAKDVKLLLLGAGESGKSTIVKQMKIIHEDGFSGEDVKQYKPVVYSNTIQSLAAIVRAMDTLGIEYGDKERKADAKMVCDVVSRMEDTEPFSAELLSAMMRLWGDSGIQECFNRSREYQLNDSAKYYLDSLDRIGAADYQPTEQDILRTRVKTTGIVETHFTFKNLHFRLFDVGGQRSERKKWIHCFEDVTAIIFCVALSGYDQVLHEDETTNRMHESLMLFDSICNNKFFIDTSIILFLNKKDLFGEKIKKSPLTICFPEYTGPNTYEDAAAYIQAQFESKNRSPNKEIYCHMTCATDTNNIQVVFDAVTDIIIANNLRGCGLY

Target: Guanine nucleotide-binding protein G(o) subunit alpha (Homo sapiens) (UniProt P09471)
Assay: RGS7-Galphao binding modulators, primary screen, biochemical, multiplexed bead flow cytometry (AID 1439);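 also: fluorescent Galphao held in activated GDP-AlF4 state binding bead-coupled RGS7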
Details: at 10 µM, actives lie on both sides

Row | SMILES | binding response (% of control)
1 | Cc1ccc[n+](-c2[nH]c(=O)sc2/C=N/N=C(\[O-])CCn2c3ccccc3c3ccccc32)c1 | inconclusive: 396%
2 | COc1ccc(C(O)(c2ccccc2OC)C(CN2CCOCC2)c2ccccc2)cc1 (stereo unspecified) | inconclusive: 75.8%
3 | O=C(N[C@@H](Cc1ccccc1)C(=O)OCc1ccccc1)c1nc[nH]c1C(=O)NC(c1ccccc1)c1ccccc1 | inactive: 94.4%
4 | Cc1onc(NC(=O)c2ccc([N+](=O)[O-])o2)c1Br | inconclusive: 60.5%
5 | CCC(O)(c1ccc(OC)cc1)C(CN1CCOCC1)c1ccccc1 (stereo unspecified) | inconclusive: 81.9%
6 | O=C1NC(=O)c2cc(Br)cc3cccc1c23 | inconclusive: 78.5%
7 | COCCNC(=O)C1CC(c2cccc(F)c2)=NO1 (stereo unspecified) | inconclusive: 134%
8 | Cc1ccc(C(=O)NC(=S)NNC(=O)CCN2CCOCC2)cc1 | inactive: 102%
9 | COc1ccc(NC(=O)CCS(=O)(=O)c2cccc3nonc23)cc1 | inconclusive: 90.8%
10 | CCn1c(/C=C/N(C(C)=O)c2ccccc2)[n+](CC)c2ccc(Cl)cc21 | inactive: 98.9%
11 | CC[C@@H]1CC=C[C@H]2[C@H]1C(=O)N(Cc1ccccc1)[C@H]2c1ccc(OC)c(Cl)c1 | inconclusive: 124%
12 | Cn1ccc(C(=O)NC(=S)N2CCSCC2)n1 | inconclusive: 27.4%
13 | O=C(Cn1nc(CNc2ccc(Br)cc2)[n+]2c1CCCCC2)c1ccc([N+](=O)[O-])cc1 | inconclusive: 110%
14 | Cc1ccc(S(=O)(=O)N(C)c2ccc(OCC(=O)NC3=NCCS3)cc2)cc1 | inconclusive: 90.2%
15 | COP1(=O)C=C[C@H](N(Cc2ccccc2)S(=O)(=O)c2ccccc2[N+](=O)[O-])[C@@H](C)O1 (stereo partly specified) | inconclusive: 94.3%
16 | COC(C[C@H](O)CC(=O)COCc1ccccc1)OC | inconclusive: 114%
17 | CN(c1ccccc1C(=O)O)S(=O)(=O)c1ccc2c3c(cccc13)C(=O)N2 | inactive: 95.6%
18 | CSc1n[nH]c(-c2ccc(C(F)(F)F)cc2)n1 | inconclusive: 108%
19 | CCS(=O)(=O)N1Cc2ccccc2CC1C(=O)OCC(=O)N(C(C)C)C(C)C (stereo unspecified) | inconclusive: 85%

Row | SMILES | binding response (% of control)
20 | COc1ccc2nc(N3CCCCC3)c(/C=C3\SC(=S)NC3=O)cc2c1 | inconclusive: 56.1%
21 | O=C(Nc1nc(-c2ccccn2)cs1)c1ccccc1-n1cnnn1 | inconclusive: 137%
22 | CN1c2ccccc2C(=O)/C(=C\Nc2ncccn2)S1(=O)=O | inconclusive: 166%
23 | CCCCNC(=S)Nc1ccc(F)cc1 | inconclusive: 101%
24 | COC(=O)c1c(C)[nH]c(C(=O)C(C)OC(=O)C2=NNC(=O)CC2)c1C (stereo unspecified) | inconclusive: 141%
25 | Cc1cccc(NC(=O)CN2C(=O)N/C(=C\c3ccc(-c4cccc(C(=O)O)c4)o3)C2=O)c1 | inconclusive: 67.3%
26 | Nc1cc(S(=O)(=O)Nc2ccc(Br)cc2)ccc1Cl | inconclusive: 7.59%
27 | NC(=O)CCC(NC(=S)Nc1ccccc1)C(=O)O (stereo unspecified) | inconclusive: 86.4%
28 | COc1ccccc1C1(CCN=Cc2ccc(N(C)C)cc2)CCOC(C)(C)C1 (stereo unspecified) | inconclusive: 66.8%
29 | COc1cc(/C=N/Nc2nc(-c3ccc(S(=O)(=O)N(C)C)cc3)cs2)ccc1O | inconclusive: 124%
30 | Cc1ccc(N2C(=O)N(c3ccc(C)cc3)C3CS(=O)(=O)CC32)cc1 (stereo unspecified) | inconclusive: 102%
31 | COc1ccc(-n2nc(C(=O)NCC(=O)N3CCN(Cc4ccc5c(c4)OCO5)CC3)c3ccccc3c2=O)cc1OC | inconclusive: 106%
32 | NC(=O)CC(NC(=O)Cc1ccc(Br)cc1)c1ccc(NCCc2cccc(F)c2)c([N+](=O)[O-])c1 (stereo unspecified) | inconclusive: 116%
33 | Cc1ccc2cc(C)c3nnc(SCc4ccc(C(=O)O)cc4)n3c2c1C | inconclusive: 140%
34 | CCN(CC)C(=S)Nc1ccc(OC(F)F)cc1 | inconclusive: 120%
35 | CCOC(=O)N1CCN(C(=S)NC(=O)c2cncc(Br)c2)CC1 | inactive: 99.1%
36 | Cc1cn(-c2cc(C(=O)Nc3ccc(C)c(NC(=O)C(=O)c4c[nH]c5ccccc45)c3)cc(C(F)(F)F)c2)cn1 | inconclusive: 84.3%
37 | Cc1sc2nc(SCc3ccc(C(=O)O)cc3)n(Cc3ccco3)c(=O)c2c1C | inconclusive: 86.6%
38 | COc1cc(NC(=O)COc2ccccc2Cl)ccc1NC(=O)C(C)C | inconclusive: 116%

Single entries from the list:
Under binding response (% of control), COC(=O)c1c(C)[nH]c(C(=O)C(C)OC(=O)C2=NNC(=O)CC2)c1C (stereo unspecified) shows inconclusive: 141%
Under binding response (% of control), COc1ccccc1C1(CCN=Cc2ccc(N(C)C)cc2)CCOC(C)(C)C1 (stereo unspecified) shows inconclusive: 66.8%

Next part:

Row | SMILES | binding response (% of control)
39 | Cn1nnnc1SCC(=O)Nc1cc(C(=O)O)cc(C(=O)O)c1 | inactive: 102%
40 | CC(=O)CSc1cc(-c2ccccc2)nc2ncnn12 | inconclusive: 111%
41 | COc1ccc(CC(=O)Nc2nnc(C(C)C)s2)cc1OC | inactive: 98.5%
42 | CCOC(=O)CC(=O)CSc1ncnc2c1nnn2-c1ccc(OC)cc1 | inactive: 94.4%
43 | CCC(=O)N1N=C(c2ccc(Cl)cc2)CC1c1ccco1 (stereo unspecified) | inconclusive: 107%
44 | C=CCCCCCCCCc1nc(SCC(C)=O)n[nH]1 | inconclusive: 67.4%
45 | CSc1ccc(C(=O)NCC(=O)O)cc1[N+](=O)[O-] | inconclusive: 15.5%
46 | Cc1cc(/C=C2\C(=O)NN(c3ccccc3)C2=O)c(C)n1-c1ccccc1O | inconclusive: 82.1%
47 | CCOC(=O)c1cnn2c(N)c(C#N)cnc12 | inconclusive: 85.7%
48 | C/C(=N/NC(=O)c1cccs1)c1cccs1 | inconclusive: 93.6%
49 | C(=N\Nc1nc2ccccc2s1)/c1ccccn1 | inconclusive: 120%
50 | O=C(CSC1=NCCS1)NC(NC(=O)CSC1=NCCS1)c1ccccc1 | inconclusive: 97.4%
51 | CN(C)c1ccc(C(=S)N2CCN(c3ccc([N+](=O)[O-])cc3)CC2)cc1 | inconclusive: -138%
52 | COc1ccc(NS(=O)(=O)c2ccc(Cl)s2)cn1 | inconclusive: 90.5%
53 | CC(C)(C)CN1C(N)=NC[C@H]1Cc1ccc(O)cc1 | inconclusive: 120%
54 | Cc1ccccc1OCC(=O)N/N=C/c1sc(=O)n(Cc2cccc(C(=O)O)c2)c1Cl | inconclusive: 87.1%
55 | O=S(=O)(c1ccc(NC(=S)NN=C(C2CC2)C2CC2)cc1)N1CCOCC1 | inconclusive: 148%
56 | Cc1c(-c2ccccc2Cl)nc2ccccc2c1C(=O)O | inconclusive: 200%
